In the supplement of paper PMC9671908 one finds parental cell viability and persister cell viability data, which are given here for 17 compounds.

Assay [1] concerns MIA PaCa-2 parental. Kind of assay: parental cell viability relative to untreated parental control; higher = more surviving cells. The following applies: treatment time: 9 days.
The subject of assay [2] is MIA PaCa-2 persister. Kind of assay: persister cell viability relative to untreated persister control; higher = more surviving persister cells. As to conditions: treatment time: 9 days; cell state: persister (100 nM gemcitabine + 100 nM Torin1).

The other results are listed elsewhere or left out. Many values rest on one well or one pass, so single values are uncertain.

For the compound `O=C(C/C(=N/O)[N+](=O)[O-])N1CCN(C(c2ccc(Cl)cc2)c2ccc(Cl)cc2)CC1` (inhibitor concentration: 1µM), the parental cell viability in assay [1] was determined as 97%. In addition, in assay [2], the persister cell viability was determined as 25%.

In the case of `CC(C)CCN1c2nc(Nc3cc(F)c(O)c(F)c3)ncc2N(C)C(=O)C1C` (centres undefined) (inhibitor concentration: 1µM), in assay [1], the parental cell viability came out at 100%. Further, in assay [2], the persister cell viability was 170%.

Consider `CN(C)c1nc(N(C)C)nc(N(C)C)n1` [Altretamine] (inhibitor concentration: 10µM), for which the parental cell viability in assay [1] is 98%. The persister cell viability in assay [2] was determined as 99.5%.

For the compound `CC(C)S(=O)(=O)c1ccc2nccc(Nc3ccc4scnc4c3)c2c1` (inhibitor concentration: 30µM), in assay [1], the parental cell viability is 60%. Further, the persister cell viability in assay [2] was 250%.

For `CN(C[C@@H]1COCCO1)S(=O)(=O)Nc1ccc2ccc3ncc(-c4cnn(C)c4)cc3c(=O)c2c1` (inhibitor concentration: 10µM), in assay [1], the parental cell viability was 92%. Moreover, the persister cell viability in assay [2] was 104%.

`O=C(O)CSc1cc(NS(=O)(=O)c2ccc(Br)cc2)c2ccccc2c1O` (inhibitor concentration: 10µM): the parental cell viability in assay [1] came out at 98.5%. In addition, in assay [2], the persister cell viability turned out to be 96%.

Regarding `Cc1[nH]nc2ccc(-c3cncc(OC[C@@H](N)Cc4ccccc4)c3)cc12` (inhibitor concentration: 100nM), the parental cell viability in assay [1] amounted to 85%. Moreover, the persister cell viability in assay [2] was determined as 60%.

Regarding `CS(=O)(=O)c1ccc(-c2cnc(N)c(C(=O)Nc3ccccc3)n2)cc1` (inhibitor concentration: 300nM), the parental cell viability in assay [1] was 99.5%. In assay [2], the persister cell viability is 103%.

Turning to `CC(C)NC[C@@H](C(=O)N1CCN(c2ncnc3c2[C@H](C)C[C@H]3O)CC1)c1ccc(Cl)cc1` (inhibitor concentration: 30µM), the parental cell viability in assay [1] is 79.5%. The persister cell viability in assay [2] was 98.5%.

In the case of `CCN1CCN(Cc2ccc(Nc3ncc(F)c(-c4cc(F)c5nc(C)n(C(C)C)c5c4)n3)nc2)CC1` [Abemaciclib] (inhibitor concentration: 300nM), the parental cell viability in assay [1] was 98%. The persister cell viability in assay [2] came out at 200%.

With `O=[N+]([O-])c1ccc(Nc2nc(N3CCOCC3)nc(N3CCOCC3)n2)cc1` (inhibitor concentration: 20µM), the parental cell viability in assay [1] worked out at 105%. Further, in assay [2], the persister cell viability turned out to be 3%.

As for `N[C@@H]1CCCN(c2c(/C=C3\SC(=O)NC3=O)cccc2-c2ccccc2)C1` (inhibitor concentration: 30µM), the parental cell viability in assay [1] stood at 103%. In addition, the persister cell viability in assay [2] amounted to 94%.

On to `O=C(CNC(=O)c1ccc(-c2ccccc2)cc1)NC1CCCc2ccccc21` (centres undefined) [Compound 43 TAO Kinase Inhibitor] (inhibitor concentration: 3µM), for which the parental cell viability in assay [1] is 110%. Also, the persister cell viability in assay [2] came to 78%.

`FC(F)(F)c1cc(C(F)(F)F)c2ccc3nc(-c4nnco4)cn3c2n1` (inhibitor concentration: 3µM): the parental cell viability in assay [1] was 101%. In assay [2], the persister cell viability is 48%.

With `O=C(COc1ccc(Cl)cc1)NC1CCC(NC(=O)COc2ccc(Cl)cc2)CC1` (stereo not drawn) [trans-ISRIB] (inhibitor concentration: 10µM), in assay [1], the parental cell viability worked out at 101%. Also, the persister cell viability in assay [2] amounted to 64%.

`CN1C(=O)C(c2c[nH]c3ccccc23)=C(c2c[nH]c3ccccc23)C1=O` [Bisindolylmaleimide V] (inhibitor concentration: 30µM): the parental cell viability in assay [1] came to 100%. Also, the persister cell viability in assay [2] is 430%.

For the compound `CCc1cnn2c(NCc3ccc[n+]([O-])c3)cc(N3CCCC[C@H]3CCO)nc12` [Dinaciclib] (inhibitor concentration: 30nM), the parental cell viability in assay [1] amounted to 95.5%. Also, the persister cell viability in assay [2] was determined as 101%.
